Results are given in words; binding and its absence hold for the method and conditions named. Binding seen in cells or lysates may run through a third protein. A result given as binding can be weak or reduced; the word gives no strength. Tags and fused reporters may be left off the sequences shown.
Molecular target: Hsp90
Assay: co-immunoprecipitation of 35S labeled Hsp90 with T7-agarose, bands quantified with a phosphoimager

- binding: binds
B1: T7 tagged full length ARA9 expressed in bacteria (pET17b-ARA9, PL799) (protein)
chain: MASMTGGQQMGMADIIARLREDGIQKRVIQEGRGELPDFQDGTKATFHYRTLHSDDEGTVLDDSRARGKPMELIIGKKFKLPVWETIVCTMREGEIAQFLCDIKHVVLYPLVAKSLRNIAVGKDPLEGQRHCCGVAQMREHSSLGHADLDALQQNPQPLIFHMEMLKVESPGTYQQDPWAMTDEEKAKAVPLIHQEGNRLYREGHVKEAAAKYYDAIACLKNLQMKEQPGSPEWIQLDQQITPLLLNYCQCKLVVEEYYEVLDHCSSILNKYDDNVKAYFKRGKAHAAVWNAQEAQADFAKVLELDPALAPVVSRELRALEARIRQKDEEDKARFRGIFSH

— patent US6432692
